The source of these data is article PMC10303830.

Protein sequences, listed by entry. Tags and fused reporters are not part of them.
UniProt P40763: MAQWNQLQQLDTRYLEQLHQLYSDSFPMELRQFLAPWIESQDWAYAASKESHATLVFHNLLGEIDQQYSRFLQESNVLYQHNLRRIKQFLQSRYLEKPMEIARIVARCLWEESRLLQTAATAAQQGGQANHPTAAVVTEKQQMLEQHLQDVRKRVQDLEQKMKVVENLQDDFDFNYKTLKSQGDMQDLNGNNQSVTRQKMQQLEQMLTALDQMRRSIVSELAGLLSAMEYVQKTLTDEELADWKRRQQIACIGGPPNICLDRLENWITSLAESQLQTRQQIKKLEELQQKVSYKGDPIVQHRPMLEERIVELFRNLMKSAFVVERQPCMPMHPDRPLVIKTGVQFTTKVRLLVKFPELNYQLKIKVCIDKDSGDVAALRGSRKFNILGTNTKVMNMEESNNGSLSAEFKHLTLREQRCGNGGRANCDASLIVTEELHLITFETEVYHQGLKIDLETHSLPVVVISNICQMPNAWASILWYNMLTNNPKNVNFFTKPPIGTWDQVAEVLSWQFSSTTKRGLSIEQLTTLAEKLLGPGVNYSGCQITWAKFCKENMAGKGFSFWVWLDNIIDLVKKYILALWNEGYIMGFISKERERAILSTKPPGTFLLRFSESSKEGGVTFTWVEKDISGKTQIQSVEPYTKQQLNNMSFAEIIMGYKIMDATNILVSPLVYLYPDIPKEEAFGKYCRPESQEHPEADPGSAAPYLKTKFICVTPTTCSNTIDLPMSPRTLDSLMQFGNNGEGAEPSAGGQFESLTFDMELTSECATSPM
UniProt P67809: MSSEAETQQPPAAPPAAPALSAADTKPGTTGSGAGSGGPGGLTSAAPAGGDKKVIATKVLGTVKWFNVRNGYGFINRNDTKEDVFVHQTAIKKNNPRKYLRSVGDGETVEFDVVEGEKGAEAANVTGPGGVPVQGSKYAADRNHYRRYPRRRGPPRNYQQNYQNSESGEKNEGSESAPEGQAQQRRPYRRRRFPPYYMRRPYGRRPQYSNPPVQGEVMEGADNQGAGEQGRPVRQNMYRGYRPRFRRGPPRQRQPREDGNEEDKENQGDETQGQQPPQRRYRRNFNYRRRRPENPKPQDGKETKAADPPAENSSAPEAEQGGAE

Results are given in words; binding and its absence hold for the method and conditions named. Binding seen in cells or lysates may run through a third protein. Some entries that bind do so weakly or less than the wild type.

For this experiment, the target named is signal transducer and activator of transcription 3 (STAT3) (UniProt P40763). Nature of the experiment: co-IP; IP assay in cells with or without silencing of RP11-296E3.2; cell line, precipitating antibody and buffer not stated.

Take “Y-Box Binding Protein 1 (YBX1) (from UniProt P67809 1-324)”: the binding result is listed as “binds”.
